Results from US20210115087A1, “CYCLIC PEPTIDE INHIBITORS OF HEDGEHOG PROTEINS” (University of Rochester, priority 2016, published 2021).
pKd: −log10 of the molar value. Like-named read-outs stand apart in the source and are kept apart here. For part of these data: Part of at least one peptide drawing is inferred or uncertain, most often the ends. For part of these data: For at least one compound, name, drawing or mass did not settle the structure. *1 amine or outer side, *2 acyl side, *3 side chain or, on linkers, in order; H or OH if unused. Where a SMILES comes first, the peptide text is derived from it. Bridges are numbered along the chain shown (N, C = ends). The star is where a group is joined. Biotin = O=C1N[C@H]2[C@H](CS[C@H]2CCCCC(=O)*)N1; oXylylene = c1ccc(C[*:2])c(C[*:1])c1; pXylylene = c1cc(C[*:2])ccc1C[*:1]; CH2CH2 = C(C[*:2])[*:1]

Chains of the proteins cited; added tags and fusions are not shown. Residues count along the entry.
UniProt Q15465, 24-462: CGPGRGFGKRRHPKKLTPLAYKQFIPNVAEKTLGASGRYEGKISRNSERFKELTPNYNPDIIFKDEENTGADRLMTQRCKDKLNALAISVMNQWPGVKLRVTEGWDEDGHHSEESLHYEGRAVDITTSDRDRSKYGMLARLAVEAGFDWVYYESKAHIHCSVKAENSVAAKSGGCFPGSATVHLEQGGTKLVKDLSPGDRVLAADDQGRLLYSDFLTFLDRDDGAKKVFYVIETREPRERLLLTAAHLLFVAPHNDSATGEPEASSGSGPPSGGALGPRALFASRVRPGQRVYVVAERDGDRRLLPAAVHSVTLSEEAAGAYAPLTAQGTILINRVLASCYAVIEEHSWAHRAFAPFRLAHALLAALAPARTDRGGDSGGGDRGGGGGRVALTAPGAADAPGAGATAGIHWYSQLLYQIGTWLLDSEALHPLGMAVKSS

How the values were obtained:
Shh = molecular target: T1, Shh (Homo sapiens, UniProt Q15465); experiment: Modified Shh binding assay: biotinylated peptides, HRP-conjugated streptavidin
T1 construct: poly-histidine (N); made in house; host or cells: E. coli BL21(DE3), vector pET42b

GST-Shh = molecular target: T2, GST-Shh (Homo sapiens, UniProt Q15465); experiment: Hh protein binding immunoassay: FLAG-tagged peptide on plate-immobilized GST-Shh, HRP-conjugated anti-FLAG antibody; conditions: read-out: KD for binding to Shh
T2 construct: poly-histidine (N); made in house; host or cells: E. coli BL21(DE3), vector pET42b
Excerpt: As for any peptide/protein interaction, various analytical and biophysical methods can be applied to test and assess the ability of the compounds provided herein to bind to Hedgehog proteins. These methods include, but are not limited to immunoassays (e.g., ELISA), radio(immune)assays, fluorescence-based assays, colorimetric assays, and/or techniques such as surface plasmon resonance (SPR), FRET, fluorescence polarization, isothermal calorimetry, NMR, and the like. A method that can be used is a solid phase immunoassay, in which the Hedgehog protein is immobilized on a plate or test tube and then incubated with the peptide at a fixed or variable concentration. […] After washing the unbound peptide, the Hedgehog-bound peptide is detected and quantified by means of a colorimetric assay using an enzyme-conjugated antibody (e.g., horseradish peroxidase-conjugated anti-FLAG antibody) or enzyme-conjugated capture protein (e.g., horseradish peroxidase-conjugated streptavidin). […]
To measure the binding affinity of the peptides for Shh, an in vitro assay was established in which recombinant GST-fused Shh is immobilized on microtiter plates and then exposed to the FLAG-tagged peptide at varying concentrations. The Shh-bound peptide is then quantified colorimetrically (λ450) using a horseradish peroxidase (HRP)-conjugated anti-FLAG antibody. […]

`CSCC[C@@H]1NC(=O)[C@H](C)NC(=O)[C@H](CCC(=O)O)NC(=O)[C@@H](NC(=O)[C@H](Cc2c[nH]c3ccccc23)NC(=O)[C@H](CO)NC(=O)[C@H](CC(C)C)NC(=O)[C@@H](NC(=O)[C@H](CO)NC(=O)CNC(=O)[C@H](CO)NC(=O)CNC(=O)CCCC[C@@H]2SC[C@@H]3NC(=O)N[C@@H]32)[C@@H](C)O)CSCc2ccccc2CSC[C@@H](C(=O)N[C@H](C(=O)N[C@@H](CC(=O)O)C(N)=O)[C@@H](C)O)NC(=O)[C@H](CCSC)NC(=O)[C@H](CC(=O)O)NC1=O` [BIOT-M5-S6] (Biotin-GSGSTLSWCEAMDMCTD-NH2; linker 9-15 via oXylylene; C-terminus assumed) was tested, and the pKd (Shh; biotinylated cysteine-crosslinked peptides; HRP-conjugated streptavidin detection; read-out: KD (SHH)) was < 4.30.

With `CSCC[C@@H]1NC(=O)[C@H](C)NC(=O)[C@H](CCC(=O)O)NC(=O)[C@@H](NC(=O)[C@H](Cc2c[nH]c3ccccc23)NC(=O)[C@H](CO)NC(=O)[C@H](CC(C)C)NC(=O)[C@@H](NC(=O)[C@H](CO)NC(=O)CNC(=O)[C@H](CO)NC(=O)CNC(=O)CCCC[C@@H]2SC[C@@H]3NC(=O)N[C@@H]32)[C@@H](C)O)CSCc2ccc(cc2)CSC[C@@H](C(=O)N[C@H](C(=O)N[C@@H](CC(=O)O)C(N)=O)[C@@H](C)O)NC(=O)[C@H](CCSC)NC(=O)[C@H](CC(=O)O)NC1=O` [Biot-m5-s8] (Biotin-GSGSTLSWCEAMDMCTD-NH2; linker 9-15 via pXylylene) the pKd (Shh; read-out: KD (SHH); biotinylated cysteine-crosslinked peptides; HRP-conjugated streptavidin detection) was < 4.30.

`CSCC[C@H](NC(=O)[C@H](CC(=O)O)NC(=O)[C@H](CC(=O)O)NC(=O)[C@H](CC(C)C)NC(=O)[C@@H](NC(=O)[C@H](CO)NC(=O)CNC(=O)[C@H](CO)NC(=O)CNC(=O)[C@H](CCCCN)NC(=O)[C@H](CC(=O)O)NC(=O)[C@H](CC(=O)O)NC(=O)[C@H](CC(=O)O)NC(=O)[C@H](CC(=O)O)NC(=O)[C@H](CCCCN)NC(=O)[C@H](Cc1ccc(O)cc1)NC(=O)[C@H](CC(=O)O)NC(=O)[C@@H](N)CCSC)[C@@H](C)O)C(=O)N[C@@H](CCC(=O)O)C(=O)N[C@@H](CCC(=O)O)C(=O)N[C@H]1Cc2ccc(cc2)OCCSC[C@@H](C(=O)N[C@@H](CO)C(=O)N[C@@H](CC(=O)O)C(=O)O)NC(=O)CNC(=O)[C@H](CC(=O)O)NC1=O` [FLAG-HL2-2m1] (H-MDYKDDDDKGSGSTLDDMEEYDGCSD-OH; linker 21-24 via CH2CH2 (inferred); N-terminus assumed) gave a pKd (GST-Shh) of 5.37.
